Changes are numbered by the printed parent chain. Numbers in names are those of the source. No constants are given. Whether binding was seen depends on the method and setting. Binding can be weak; no strength is given. Blank lines part the entries; values can stand above or below the binder they belong to.
What was measured:
[1] = target: SR344 (N-terminal 1st to 344th amino acids of soluble human IL-6R) (human) (UniProt P08887); assay: SPR (Biacore T100), antibody captured on Protein A, soluble human IL-6 receptor as analyte
[2] = target: SR344 (N-terminal 1st to 344th amino acids of soluble human IL-6R) (human) (UniProt P08887); assay: SPR (Biacore T100), Protein A/G capture, SR344 as analyte, 37 C
[3] = target: SR344 (N-terminal 1st to 344th amino acids of soluble human IL-6R) (human) (UniProt P08887); assay: SPR (Biacore T100), antibody captured on Protein A/G, SR344 as analyte (0.0654, 0.131, 0.261 µg/ml per the text), 37 C
[4] = target: SR344 (N-terminal 1st to 344th amino acids of soluble human IL-6R) (human) (UniProt P08887); assay: SPR (Biacore T100), antibody captured on Protein A/G, SR344 as analyte (0.065, 0.131, 0.261 µg/ml per the text), 37 C

Protein sequences, listed by entry. Tags and fused reporters are not part of them. Lines headed by an entry give the natural chain unless they say otherwise; changes in a name come on top.
UniProt P08887: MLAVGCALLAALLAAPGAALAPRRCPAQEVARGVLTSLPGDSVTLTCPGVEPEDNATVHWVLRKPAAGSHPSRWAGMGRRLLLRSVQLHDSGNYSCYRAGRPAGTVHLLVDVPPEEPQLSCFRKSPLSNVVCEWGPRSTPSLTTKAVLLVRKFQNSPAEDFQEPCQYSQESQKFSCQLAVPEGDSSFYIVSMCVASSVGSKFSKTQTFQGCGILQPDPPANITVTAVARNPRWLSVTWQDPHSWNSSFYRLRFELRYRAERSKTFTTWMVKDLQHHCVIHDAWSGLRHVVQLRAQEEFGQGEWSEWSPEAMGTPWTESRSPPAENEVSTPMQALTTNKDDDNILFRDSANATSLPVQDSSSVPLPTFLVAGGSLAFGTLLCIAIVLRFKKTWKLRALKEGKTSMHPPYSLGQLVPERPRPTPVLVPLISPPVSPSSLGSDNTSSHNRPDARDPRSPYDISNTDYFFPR

binding [1]: binds
B1: 6R_a_H2L2 (antibody, human IgG1, kappa, V domains shown)
VH: QVQLQESGPGLVKPSETLSLTCAVSGYSISDDHAWSWVRQPPGEGLEWIGYISYSGITNYNPSLKGRVTISRDTSKNQFSLKLSSVTAADTAAYYCARVLARITAMDYWGEGTLVTVSS
VL: DIQMTQSPSSLSASVGDSVTITCQASQDISSYLNWYQQKPGKAPELLIYYGSELHSGVPSRFSGSGSGTDFTFTISSLEAEDAATYYCGQGNRLPYTFGQGTKVEIER

binding [2]: binds
B2: F2H/L39-IgG1 (antibody, V domains shown)
VH: QVQLQESGPGLVKPSETLSLTCAVSGYSISDDHAWSWVRQPPGEGLEWIGYISYSGITNYNPSLQDRVTISRDNSKNTLYLQMNSLRAEDTAVYYCARLLARATAMDYWGQGILVTVSS
VL: B1 VL with Q27E, H55E

binding [1]: binds
B3: 6R_a_H3L3 (antibody, human IgG1, kappa, V domains shown)
VH: B2 VH
VL: B1 VL with Q27E, H55E

binding [3]: binds
B4: RDC-23 (antibody, V domains shown)
VH: QVQLQESGPGLVRPSQTLSLTCTVSGYSITSDHAWSWVRQPPGRGLEWIGYISYSGITTYNPSLKSRVTMLRDTSKNQFSLRLSSVTAADTAVYYCARVLARITAMDYWGQGSLVTVSS
VL: DIQMTQSPSSLSASVGDRVTITCRASQDISSYLNWYQQKPGKAPKLLIYYTSRLHSGVPSRFSGSGSGTDFTFTISSLQPEDIATYYCGQGNRLPYTFGQGTKVEIK

binding [4]: binds
B5: PF1 antibody (antibody, IgG1, V domains shown)
VH: B1 VH
VL: B4 VL with R18S, R24Q, K45E, T51G, R53E, Q79E, P80A, I83A, K107E

binding [1]: binds
B6: 6R_a_H1L1 (antibody, human IgG1, kappa, V domains shown)
VH: B4 VH
VL: B1 VL with S18R, Q24R, E45K, G51T, E53R, E79Q, A80P, A83I, E107K

binding [2]: binds
B7: H96/PF1L-IgG1 (antibody, V domains shown)
VH: B2 VH with Q65K, D66G, L99V, A103I, Q111E, I113T
VL: B4 VL with R18S, R24Q, K45E, T51G, R53E, Q79E, P80A, I83A, K107E
